Measurements reported in PubChem BioAssay AID1224828 (NIAID, 2016)
Test: 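Regulators linking TLR4 signalling to p65 nuclear translocation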 (primary screen). System: mouse RAW264.7 G9 macrophage reporter cells (GFP-p65, Tnf promoter-mCherry). Knock-down reagent: siRNA pool against mouse genes, 100 nM. Time to read-out: 2 days siRNA transfection, then 40 min LPS before fixation. Treatment: LPS (Salmonella minnesota R595) at 10 ng/ml. Measured: 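Imaged p65 nuclear translocation ratio, normalised to the plate median, converted to robust z-scores and averaged across two replicates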. Scale: p65 translocation robust z-score: higher = more nuclear NF-kappaB p65 after LPS than the plate median; nuclear/cytoplasmic p65 ratio: higher = more nuclear NF-kappaB p65. Hit rule: 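Called active when z exceeds 3.3 or falls under -1.56 (median of Tlr4 controls), giving activity score of at least 50; no calls for control wells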. Calls: active = hit (p65 shift raised or lowered); inactive = no clear change.
Shown is one part, drawn at random, of about 17,000 reagents tested. 762 of all reagents (4.5%) count as active. 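Active calls include both raised and lowered p65 entry, mostly lowered; wells with fewer than 50 cells lack a z-score.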 Raw values vary from plate to plate and are shown uncorrected. Entries without a mark were called inactive. The numbers tell different reagents against one gene apart. A reagent listed more than once was tested more than once; the source does not tell the runs apart.

target gene,pool no.,p65 translocation robust z-score,"nuclear/cytoplasmic p65 ratio, rep 1","nuclear/cytoplasmic p65 ratio, rep 2",low cell count flag
Gprc5d (GeneID 93746),1,0.62,1.59,1.66,enough cells to score
Or11i1 (GeneID 258482),1,,1.46,1.18,fewer than 50 cells per well; well left out of scoring
Tspan5 (GeneID 56224),1,1.38,1.54,1.42,enough cells to score
Zdhhc4 (GeneID 72881),1,0.2,1.53,1.19,enough cells to score
Commd9 (GeneID 76501),1,-0.75,1.55,1.57,enough cells to score
Dnajc5b (GeneID 66326),1,3.32 (active),1.97,1.73,enough cells to score
Abcd1 (GeneID 11666),1,0.11,1.63,1.62,enough cells to score
Tex18 (GeneID 83559),1,0.25,1.44,1.22,enough cells to score
Tas2r139 (GeneID 353148),1,0.53,1.59,1.21,enough cells to score
Erbb4 (GeneID 13869),1,0.09,1.73,1.37,enough cells to score
Nvl (GeneID 67459),1,0.42,1.8,1.57,enough cells to score
Crp (GeneID 12944),1,-0.44,1.56,1.66,enough cells to score
Dguok (GeneID 27369),1,0.32,1.75,1.43,enough cells to score
Nup43 (GeneID 69912),1,,1.34,1.44,fewer than 50 cells per well; well left out of scoring
Fyn (GeneID 14360),1,0.79,1.82,1.48,enough cells to score
Magea5 (GeneID 17141),1,0.39,1.77,1.61,enough cells to score
Ccdc74a (GeneID 72315),1,-0.35,1.53,1.59,enough cells to score
Yes1 (GeneID 22612),1,-0.12,1.63,1.4,enough cells to score
Celf2 (GeneID 14007),1,1.65,1.73,1.57,enough cells to score
Celf2 (GeneID 14007),2,-0.25,1.5,1.54,enough cells to score
Snai2 (GeneID 20583),1,-0.23,1.49,1.55,enough cells to score
Hip1 (GeneID 215114),1,-0.13,1.44,1.37,enough cells to score
Opn5 (GeneID 353344),1,-0.09,1.51,1.57,enough cells to score
Mtif3 (GeneID 76366),1,-1.05,1.29,1.32,enough cells to score

Active calls, among the entries above:
target gene,pool no.,p65 translocation robust z-score,"nuclear/cytoplasmic p65 ratio, rep 1","nuclear/cytoplasmic p65 ratio, rep 2",low cell count flag
Dnajc5b (GeneID 66326),1,3.32 (active),1.97,1.73,enough cells to score

The list goes on:
target gene,pool no.,p65 translocation robust z-score,"nuclear/cytoplasmic p65 ratio, rep 1","nuclear/cytoplasmic p65 ratio, rep 2",low cell count flag
Tgif2lx1 (GeneID 245583),1,1,1.71,1.62,enough cells to score
Gpr4 (GeneID 319197),1,-1.74 (active),1.25,1.34,enough cells to score
Tgfb2 (GeneID 21808),1,0.77,1.68,1.58,enough cells to score
Sult1e1 (GeneID 20860),1,-0.23,1.53,1.51,enough cells to score
Nlk (GeneID 18099),1,-0.7,1.5,1.29,enough cells to score
Frrs1 (GeneID 20321),1,-0.13,1.48,1.14,enough cells to score
Rnf133 (GeneID 386611),1,-1.08,1.18,1.1,enough cells to score
Pla2g4b (GeneID 211429),1,0.01,1.52,1.39,enough cells to score
Gale (GeneID 74246),1,0.67,1.54,1.44,enough cells to score
Rgs7 (GeneID 24012),1,1.15,1.59,1.35,enough cells to score
Rgs7 (GeneID 24012),1,0.88,1.38,1.71,enough cells to score
Gpt (GeneID 76282),1,1.35,1.76,1.82,enough cells to score
Gtf3c1 (GeneID 233863),1,0.76,1.51,1.45,enough cells to score
Zp3r (GeneID 22789),1,-0.33,1.37,1.21,enough cells to score
Ube4a (GeneID 140630),1,1.54,1.68,1.76,enough cells to score
Edf1 (GeneID 59022),1,-2.2 (active),0.992,1.24,enough cells to score
Hjv (GeneID 69585),1,-0.28,1.31,1.24,enough cells to score
Otor (GeneID 57329),1,1.67,1.7,1.6,enough cells to score
Trmt61a (GeneID 328162),1,-0.97,1.36,1.34,enough cells to score
Ap2s1 (GeneID 232910),1,-0.29,1.52,1.68,enough cells to score
Med31 (GeneID 67279),1,,1.88,2.19,fewer than 50 cells per well; well left out of scoring
Kpnb1 (GeneID 16211),1,,1.37,1.62,fewer than 50 cells per well; well left out of scoring
Ppm1g (GeneID 14208),1,-0.21,1.39,1.45,enough cells to score
Pgm5 (GeneID 226041),1,-1.04,1.3,1.12,enough cells to score
Dynlrb1 (GeneID 67068),1,-0.56,1.4,1.29,enough cells to score
Aldh1l2 (GeneID 216188),1,-1.29,1.3,1.39,enough cells to score
Krtap21-1 (GeneID 170656),1,0.09,1.56,1.46,enough cells to score
Krtap21-1 (GeneID 170656),2,-0.8,1.45,1.31,enough cells to score
Mst1r (GeneID 19882),1,,1.68,1.17,fewer than 50 cells per well; well left out of scoring
Caln1 (GeneID 140904),1,-1.05,1.53,1.51,enough cells to score
Psbpc1 (retired record) (GeneID 114895),1,-0.64,1.27,1.16,enough cells to score
Lrch4 (GeneID 231798),1,1.1,1.55,1.6,enough cells to score
Arhgef4 (GeneID 226970),1,0.39,1.47,1.62,enough cells to score
Arhgef4 (GeneID 226970),2,,1.36,1.53,fewer than 50 cells per well; well left out of scoring
Cd300lf (GeneID 246746),1,0.71,1.54,1.48,enough cells to score
